Source: article doi:10.1101/2021.05.26.445790
No constants are given. Whether binding was seen depends on the method and setting. Some entries that bind do so weakly or less than the wild type.

Target: T1, TatC (Escherichia coli) (UniProt P69423)
T1 sequence: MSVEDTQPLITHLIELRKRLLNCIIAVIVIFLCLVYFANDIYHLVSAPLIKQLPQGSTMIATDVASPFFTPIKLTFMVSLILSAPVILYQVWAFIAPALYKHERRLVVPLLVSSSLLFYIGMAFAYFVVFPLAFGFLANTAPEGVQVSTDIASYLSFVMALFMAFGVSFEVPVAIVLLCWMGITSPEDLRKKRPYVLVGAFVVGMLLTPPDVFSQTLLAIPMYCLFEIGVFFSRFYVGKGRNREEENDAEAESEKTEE
Experiment: native gel or EMSA

B1: TatB (wild type) (protein, UniProt P69425 1-171)
chain: MFDIGFSELLLVFIIGLVVLGPQRLPVAVKTVAGWIRALRSLATTVQNELTQELKLQEFQDSLKKVEKASLTNLTPELKASMDELRQAAESMKRSYVANDPEKASDEAHTIHNPVVKDNEAAHEGVTPAAAQTQASSPEQKPETTPEPVVKPAADAEPKTAAPSPSSSDKP
- binding: binds
